# Experiment: soluble on expression in E. coli; label from the status in PepcDB or PDB records
row,Sequence,soluble on expression in E. coli
1,MLSFQYPDVYRDETAIQDYHGHKVCDPYAWLEDPDSEQTKAFVEAQNKITVPFLEQCPIRGLYKERMTELYDCPKYSCHFKKGKRYFYFYNTGLQNQRVLYVQDSLEGEARVFLDPNILSDDGTVALRGYAFSEDGEYFAYGLSASGSDWVTIKFMKVDGAKELPDVLERVKFSCMAWTHDGKGMFYNAYPQQDGKSDGTETSTNLHQKLYYHVLGTDQSEDILCAEFPDEPKWMGGAELSDDGRYVLLSIREGTDPVNRLWYCDLQQESNGITGILKWVKLIDNFEGEYDYVTNEGTVFTFKTNRHSPNYRLINIDFTDPEESKWKVLVPEHEKDVLEWVACVRSNFLVLCYLHDVKNTLQLHDLATGALLKIFPLEVGSVVGYSGQKKDTEIFYQFTSFLSPGIIYHCDLTKEELEPRVFREVTCKGIDASDYQTVQIFYPSKDGTKIPMFIVHKKGIKLDGSHPAFLYGYGGFNISITPNYSVSRLIFVRHMGGVLAVANIRGGGEYGETWHKGGILANKQNCFDDFQCAAEYLIKEGYTSPKRLTINGGSNGGLLVATCANQRPDLFGCVIAQVGVMDMLKFHKYTIGHAWTTDYGCSDSKQHFEWLIKYSPLHNVKLPEADDIQYPSMLLLTADHDDRVVPLHSLKFIATLQYIVGRSRKQNNPLLIHVDTKAGHGAGKPTAKVIEEVSDMFAFIARCLNIDWIP,soluble
2,MPDYKAPLRDIRFVRDELLGYEAHYQSLPGAEDATPDMVNAILEEGAKFCEQVIAPLNRVGDLEGCTWSADGVKTPTGFKEAYQQFVEGGWPSLAHDVEHGGQGLPESLGLAISEMVGQANWSWGMYPGLSHGAMNTLHAHGTAEQQATYLTKLVSGEWTGTMCLTEPHCGTDLGMLRTKAEPQADGSYKVTGTKIFISAGEHDMADNIVHIVLARLPDAPQGTKGISLFIVPKFLPNAEGNAGERNAVSCGSIEHKMGIHGNATCVMNFDAATGFLIGPPNKGLNCMFTFMNTARLGTALQGLAHAEVGFQGGIAYARERLQMRSLTGPKAPEKPADPIIVHPDVRRMLLTMKAFAEGNRAMLYFAAKQVDIVQRSQDEEQKKAADSMLAFLTPIAKAFMTEVGFESANHGVQIFGGHGFIAEHGMEQNVRDSRISMLYEGTTGVQALDLLGRKVLMTQGEALKGFTKIVHKFCQANEANEAVKEFVAPLAQLNKEWGDLTMKVGMAAMKDREEVGAASVDYLMYSGYACLAYFWADMARLAAEKLAAGTGEEAFYKAKLQTARFYFQRILPRTRAHVAAMLSGANNLMEMAEEDFALGY,soluble
3,MPGKNSKKMIGACVVTAALLCAPSALKAEGMLSHYTCVADAIQKDNRPEPAKRLFRSQAVENEIIRVQKLLRNSKLAWMFTNCFPNTLDTTVHFRKGKDGKPDTFVYTGDIHAMWLRDSGAQVWPYVQLANSDPELKTMLAGVINRQFKCINIDPYANAFNDGPKGGEWMSDLTDMKPELHERKWEIDSLCYPLRLAYQYWKTTGDTSIFDEEWIQAITNILRTFKEQQRKDGVGPYKFQRKTERALDTVTNDGLGNPVKPVGLIVSTFRPSDDATTLQYLVPSNFFAVSSLRKAAEILTTVNKKTALANECKALANEVETALKKYAVYNHPKYGKIYAFEVDGFGNHMLMDDANVPSLLAMPYLGDVSIDDPIYQNTRRFVWSLDNPYFFKGKAGEGIGGPHIGYDMVWPMSIMMKAFTSKDDAEIKSCIEMLMNTDAGTGFMHESFHKDNPEKFTRAWFAWQNTLFGELILKLVNEGKVDMLNSIQLEHHHHHH,soluble
4,MPYANQPNIEVTELTNDIIKFVLWDTDLSVANSLRRVFMAEVPTIAIDWVQIETNTSVLHDEFIAHRMGLIPFISDYHVEKMQYTRDCECAEFCDECSIPFILQMKCKDEATLAVTTEHLMPMHNLDTTVRPACGKALRERGSTRDEFHNREEILIVKLRKGQELNLKAYVKKGFGKEHAKWNPTCGVAFEYDPDNALRHTIYPNVEEWPRSDHSSLPEDSTEKEAPFEPDNKPNKFWFSIEGTGALPAQRIVTMGIGILKRKLEELNMALSNELQAHAQQHILIFHFVKKHTSYNTAFFSQNMVCGDCEKKLTKIVGVDPYRNKKVNRNADGSGPKTVTTKNRLIGVQKKATIVGAKCKLCKMLIHQPGSHYCSTCAYQKGICAMCGKKIQNTKGLRQSTT,not soluble
5,MSDRLGQITKGKDGKSKYSTLSLFDKYKGKSVDAIRSSVIPRHGLQSLGKVAAARRMPPPANLPSLKSENKGNDPNIVIVPKDGTGWANKQDQQDPKSSSATASQPPESLPQPGLQKSVSNLQKPTQSISQENTNSVPGGPKSWAQLNGKPVGHEGGLRGSSRLLSFSPEEFPTLKAAGGQDKAGKEKGVLDLSYGPGPSLRPQNVTSWREGGGRHIISATSLSTSPTELGSRNSSTGDGAPSSACTSDSKDPSLRPAQPVRKGASQFMGNVYHPPTYHDMLPAFMCSPKSSENQGTVERGSFPLPQLRLEPRVPFRQFQMNDQDWNYGARLVNMTFNE,soluble
6,MSKRRVVVTGLGMLSPVGNTVESTWKAVLAGQSGISLIDHFDTSAYATRFAGLVKDFNCEDYISRKDARKMDAFIQYGVAAGMQAMQDAGLDITEANASRIGAAIGSGIGGLGLIEENHTALVNGGPRKISPFFVPSTIVNMIAGHLTIMYGLRGPSISIATACTSGVHNIGHAARIIAYNDADVMVAGGAEKASTPLGVGGFGAARALSTRNDNPQAASRPWDKDRDGFVLGDGAGMMVLEEYEHAKKRGAKIYAEVVGFGMSSDAYHMTSPPEDGSGAALAMVNALRDAGITTSQIGYINAHGTSTPAGDKAETQAVKSVFGEDAYKVMVSSTKSMTGHLLGAAGAVESIFTVLALRDQAIPATINLDNPDEGCDLDYVPHDARQVKDMEYTLCNSFGFGGTNGSLVFRKV,not soluble
7,MSLGDAIKAFIQNRNSRETNPSPSNQAKEANRSVASSKKQALRTSVLIDAPLLSQLPELPRGCEVTSLAMLLNHAGIRVDKMTLAKQIKKNPTPYQVRNGQVFYGHPNEGFVGDMYTLSKPGYGVYHKPIKQLAERYLPNQIIDLTGQSFENIYTYLAKGTPVWVITNTTFRPLPPSAFREWQTPQGPIKITYREHAVLITGYDEQYIYFNDPLTAVKNQKAPKQDFIDAWVQMGRQAITYHREGHHHHHH,soluble
8,MSLSDINRVYLVTGAASGIGRATARLLAAPGTALMLHTRSNAAGLDAAAAEAEAQGAVVAKCLGDLAGEAAATDAVAAAQTAFGRLDGLILVGGHARRGSAIGTPADEFRQAMDESALAFTRLVDAALPLLRAGRDARIVAVSSFVAHAIRPEFAPFAATAASRSALEALVRLAAVELAKDGITVNAVSPGLIVKDKPSESRLSPEQIAATEALIPMRRRGRPEEVAEIIAFLASPKASYVTGQVWHVNGGLTEGHHHHHH,soluble
9,MSNRLPVTVLSGFLGAGKSTLLNHVLRNRDNLRVAVIVNDMSEINIDASEVQRNVSLNRAEEKLVEMSNGCICCTLREDLLEEVARLAEEGRFDYLLIESTGISEPLPVAETFTFRDEQGRSLSDMARLDTMVTVVDGLNFLRDYQAADSLASRGETLGEEDERSISDLLIEQVEFADVLLLSKIDLISQHEREELIAILRSLNARAQIVPMVMGQVPLARILNTRLFDFDQAAQAPGWLQELRGEHVPETEEYGIAAMTWQARRPLHPQRFYDFIHKDWENGRLLRSKGFFWLASKYQEAGSWSQAGGMMRHGLAGRWWRFVPREQWPQDVDNTNAILKHWTADTGDCRQELVFIGQNIDVEKLSTALDACLLTDQEMGLGHMGWLRLPDPFGPWHEEAAA,not soluble
10,MSSPRRTRIMFDTSSDDSQSDEKIDDFICRSSPQRQSKESDDQEDSVVDESMKSVNSPIVNTPSSTASHCTNSFATSTPKSKSNASTRLGSSYGSSRSSSQNHESHDRSRSFVQYDENKPLTPISKKLAESTDLRSKAQLRERLLRKSLKQNAEDSSPTRAASGGGWGSSADVKKSPEVSTGLFETALSPIAKSDRRSSEYNSSTFLNVQKVATSTAINDIGGREEIVDESFPAPRTTAKQDDSDIIEVTPEKVVSNEKRKSGIAINLDDSDIIDVTPVKTTSSRPPEPQRPRLPTSPINSEYAKLSYKELLAKKNKVMGLISLSLDLPDGGRRVIKQFQELDDEVERRKEMGLAEEIVDDDEDDEIFVIEDDEPSHRQVAPKFPSGSVMTQNGLLPKRHIVDPLKAPQPDFNAMLEKDNKKMMSGKMTDEKYKRIQLVSDRVVRQLAEATHTIPDETELTDTPKGFKLELMPHQKAGLTWMRWRETQPQPGGILADDMGLGKTLSMISLIAHQKAARRARREDGNDDKDKEKRKVVKEQGLIPSNGTLIVAPASLIHQWDAEIDRRLDDSVLSTYMFHGTKKQRDIDARRLARYDVVITTFNLIANELIEKIRTKSKADDSSDGESDSNHTGIRRAVGKDDSVLAQICWSRVILDEAHTIKNRQSLASKAVCRLSAFSRWCLSGTPIHNNLWDLYSLVRFLRIRPFSDDKYWKESIMPMKPIMADRVNLLTKNLLLRRTKDQTCAVTNQKLVQLPPKNVEVHELELDGDEAQAYEIMMEAAKKFVKKLLQDSNDMKNHGFIPRRNRRAGKEGEVQNPFNFGPRDLAAGSNFEKMSCVLMLLLRLRQACVHFNITKTGVDMDAFSLIGGDNAEEANVDDLNELLEKTMNMTLGNGDNEERDKPRATTRIFDPDYLSCKIKNTLEIVENIMEKKEKVVIVSQWTSVLNLIEIHIKSSGFKYTSITGQVLVKDRQERVDSFNREKGGARVMLLSLAAGGVGLNLTGGNHLVMVDLHWNPALEQQAFDRIYRMGQKKDVFIHRLVTKGTIEQRVVMLQKDKVALASSVLDGNATRKMNKLTTADIKMLFGLNEK,soluble
11,MTKKRHLFTSESVTEGHPDKICDQISDSILDAILSKDANARVACETTVTTGLVLVAGEITTSTYVDIPKIVRETIQGIGYTRAKYGFDAETCAVLTSIDEQSADIAMGVDQALEAREGQMTDAEIEAIGAGDQGLMFGFACNETQELMPLPISLAHKLARRLTEVRKNDTLSYLRPDGKTQVTVEYDENGKPVRVDTIVISTQHHPDVTWEEIDRDLKEHVIKAVVPAELIDGETKFFINPTGRFVIGGPQGDAGLTGRKIIVDTYGGYARHGGGAFSGKDATKVDRSAAYAARYVAKNIVAAGLAEKAEVQLAYAIGVAQPVSISVDTFGTGKVSEDVLVELVRNNFDLRPAGIIKMLDLRRPIYKQTAAYGHFGRTDVDLSWERTDKAAALKEQAGL,not soluble
12,MTSPNIFQDWADVYEFIERDSSRKNVPAIEAIERRLAFSPLITPNPGAKQFAPIHVPGREPPRMLLPPTPHFQAPFSPHPPPVQQVPSYSPPHAPPSYETYPEVYYPPHIICNPYDVPTTSDRNPPYYTEVTTVSAVTLHSMTPPTHKIETPPSSPENSFGPLASQLPAIKMEIPMHPLPHNGELDSTRSSPSSTTSSERSPLQRKSRIESNKRNPTDKKFVVHACTYPGCFKKYSKSSHLKAHERTHSGEKPFVCKWQNCSWKFARSDELTRHMRKHTGDKPFRCSLCDRNFARSDHLSLHMKRHSTI,not soluble
13,SANAILLVSEDQRSVQRAEEPHDLPDNPERFEWRYCVLGCESFMSERHYWEVEVGDRKEWHIGVCSKNVERKKVWVKMTPENGYWTMGLTDGNKYRALTEPRTNLKLPEPPRKVGVILDYETGHISFYNATDGSHIYTFLHASSSEPLYPVFRILTLEPTALTVCPIPKVESSPDPDLVPDHSLEIPLTPGLANESGEPQAEVTSLLLPAQPGAKGLTLHNSQSEP,soluble
14,SWKASAGHAVSITQDDGGADDWETDPDFVNDVSEKEQRWGAKTVQGSGHQEHINIHKLRENVFQEHQTLKEKELETGPKASHGYGGKFGVEQDRMDRSAVGHEYQSKLSKHCSQVDSVRGFGGKFGVQMDRVDQSAVGFEYQGKTEKHASQKDYSSGFGGKYGVQADRVDKSAVGFDYQGKTEKHESQKDYSKGFGGKYGIDKDKVDKSAVGFEYQGKTEKHESQKDYVKGFGGKFGVQTDRQDKCALGWDHQEKLQLHESQKDYAKGFGGKYGVQKDRMDKNASTFEEVVQVPSAYQKTVPIEAVTSKTSNIRANFENLAKEREQEDRRKAEAERAQRMAKERQEQEEARRKLEEQARAKKQTPPASPSPQPIEDRPPSSPIYEDAAPFKAEPSYRGSEPEPEYSIEAAGIPEAGSQQGLTYTSEPVYETTEAPGHYQAEDDTYDGYESDLGITAIALYDYQAAGDDEISFDPDDIITNIEMIDDGWWRGVCKGRYGLFPANYVELRQ,soluble

# Reference: the DeepSol protein solubility set
